Results are given in words; binding and its absence hold for the method and conditions named. Some results given as binding are weak or reduced against the parent protein; the word gives no strength. For some assays here: Sequences can lack the tags named with a protein.
Tests used:
[1] = biological target: mouse DEC205 (mouse) (UniProt Q60767); test: flow cytometry on CHO/mDEC205 cells, hCG a/s and anti-rabbit IgG-FITC
[2] = biological target: mouse DEC205 (mouse) (UniProt Q60767); test: flow cytometry on mouse bone marrow derived dendritic cells (DEC-205 of mouse DCs)
[3] = biological target: T1, CR/FNII domain of canine DEC205, GST fusion protein (canine); test: ELISA, CR/FNII adsorbed on plate, ScFv-CS-hCG complex, hCG a/s and anti-rabbit IgG-HRP
T1 sequence: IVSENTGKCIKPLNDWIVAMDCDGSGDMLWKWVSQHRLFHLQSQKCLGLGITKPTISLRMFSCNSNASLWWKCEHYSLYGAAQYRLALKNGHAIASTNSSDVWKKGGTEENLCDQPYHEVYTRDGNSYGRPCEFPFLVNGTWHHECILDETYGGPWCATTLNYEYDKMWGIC

Amino acid sequences for entries named in this document (tags omitted). A change or cut given only in a name is not applied to a line headed by its entry. Residues count along the entry.
UniProt Q60767, residues 28-1723: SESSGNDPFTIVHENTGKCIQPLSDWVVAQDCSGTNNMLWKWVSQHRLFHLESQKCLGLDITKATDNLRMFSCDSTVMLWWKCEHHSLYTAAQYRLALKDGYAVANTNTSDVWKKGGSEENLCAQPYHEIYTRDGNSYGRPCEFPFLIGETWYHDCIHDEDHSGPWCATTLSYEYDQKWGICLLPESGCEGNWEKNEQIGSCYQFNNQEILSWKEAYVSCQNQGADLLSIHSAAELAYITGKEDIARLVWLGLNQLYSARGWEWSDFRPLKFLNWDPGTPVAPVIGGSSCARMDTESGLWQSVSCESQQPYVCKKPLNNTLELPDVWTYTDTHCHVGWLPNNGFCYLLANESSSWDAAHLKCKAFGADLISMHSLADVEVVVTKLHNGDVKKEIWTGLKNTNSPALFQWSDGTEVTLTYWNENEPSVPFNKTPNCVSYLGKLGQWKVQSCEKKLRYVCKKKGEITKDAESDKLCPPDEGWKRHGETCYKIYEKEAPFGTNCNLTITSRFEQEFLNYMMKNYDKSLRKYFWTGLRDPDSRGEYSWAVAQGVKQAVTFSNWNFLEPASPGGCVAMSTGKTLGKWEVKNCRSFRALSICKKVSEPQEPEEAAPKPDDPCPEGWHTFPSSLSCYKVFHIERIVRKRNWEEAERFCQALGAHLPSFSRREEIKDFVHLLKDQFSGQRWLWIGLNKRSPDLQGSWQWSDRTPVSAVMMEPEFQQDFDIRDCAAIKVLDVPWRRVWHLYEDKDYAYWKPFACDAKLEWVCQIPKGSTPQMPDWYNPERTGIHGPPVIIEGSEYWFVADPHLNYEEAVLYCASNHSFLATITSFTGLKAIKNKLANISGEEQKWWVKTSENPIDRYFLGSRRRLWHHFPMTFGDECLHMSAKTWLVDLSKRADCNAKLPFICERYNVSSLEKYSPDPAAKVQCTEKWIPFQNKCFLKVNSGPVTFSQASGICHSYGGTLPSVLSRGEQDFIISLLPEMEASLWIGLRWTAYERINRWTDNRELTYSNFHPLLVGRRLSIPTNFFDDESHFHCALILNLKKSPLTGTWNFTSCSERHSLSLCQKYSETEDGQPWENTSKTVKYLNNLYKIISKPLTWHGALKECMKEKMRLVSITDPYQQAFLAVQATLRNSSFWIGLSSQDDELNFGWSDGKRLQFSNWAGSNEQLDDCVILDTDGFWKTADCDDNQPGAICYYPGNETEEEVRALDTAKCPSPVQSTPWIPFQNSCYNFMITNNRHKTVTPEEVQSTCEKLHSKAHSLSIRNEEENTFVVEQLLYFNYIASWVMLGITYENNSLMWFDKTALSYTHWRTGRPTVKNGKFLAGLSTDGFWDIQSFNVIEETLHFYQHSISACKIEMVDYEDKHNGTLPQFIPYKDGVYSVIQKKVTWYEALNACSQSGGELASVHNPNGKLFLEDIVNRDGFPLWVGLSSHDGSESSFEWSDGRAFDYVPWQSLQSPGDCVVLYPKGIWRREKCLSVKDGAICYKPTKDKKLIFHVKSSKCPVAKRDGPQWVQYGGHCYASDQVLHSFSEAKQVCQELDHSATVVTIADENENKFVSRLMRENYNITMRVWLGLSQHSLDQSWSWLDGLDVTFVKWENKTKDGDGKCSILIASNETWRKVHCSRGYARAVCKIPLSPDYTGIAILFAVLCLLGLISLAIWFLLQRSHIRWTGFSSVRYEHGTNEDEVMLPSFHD
UniProt O60449: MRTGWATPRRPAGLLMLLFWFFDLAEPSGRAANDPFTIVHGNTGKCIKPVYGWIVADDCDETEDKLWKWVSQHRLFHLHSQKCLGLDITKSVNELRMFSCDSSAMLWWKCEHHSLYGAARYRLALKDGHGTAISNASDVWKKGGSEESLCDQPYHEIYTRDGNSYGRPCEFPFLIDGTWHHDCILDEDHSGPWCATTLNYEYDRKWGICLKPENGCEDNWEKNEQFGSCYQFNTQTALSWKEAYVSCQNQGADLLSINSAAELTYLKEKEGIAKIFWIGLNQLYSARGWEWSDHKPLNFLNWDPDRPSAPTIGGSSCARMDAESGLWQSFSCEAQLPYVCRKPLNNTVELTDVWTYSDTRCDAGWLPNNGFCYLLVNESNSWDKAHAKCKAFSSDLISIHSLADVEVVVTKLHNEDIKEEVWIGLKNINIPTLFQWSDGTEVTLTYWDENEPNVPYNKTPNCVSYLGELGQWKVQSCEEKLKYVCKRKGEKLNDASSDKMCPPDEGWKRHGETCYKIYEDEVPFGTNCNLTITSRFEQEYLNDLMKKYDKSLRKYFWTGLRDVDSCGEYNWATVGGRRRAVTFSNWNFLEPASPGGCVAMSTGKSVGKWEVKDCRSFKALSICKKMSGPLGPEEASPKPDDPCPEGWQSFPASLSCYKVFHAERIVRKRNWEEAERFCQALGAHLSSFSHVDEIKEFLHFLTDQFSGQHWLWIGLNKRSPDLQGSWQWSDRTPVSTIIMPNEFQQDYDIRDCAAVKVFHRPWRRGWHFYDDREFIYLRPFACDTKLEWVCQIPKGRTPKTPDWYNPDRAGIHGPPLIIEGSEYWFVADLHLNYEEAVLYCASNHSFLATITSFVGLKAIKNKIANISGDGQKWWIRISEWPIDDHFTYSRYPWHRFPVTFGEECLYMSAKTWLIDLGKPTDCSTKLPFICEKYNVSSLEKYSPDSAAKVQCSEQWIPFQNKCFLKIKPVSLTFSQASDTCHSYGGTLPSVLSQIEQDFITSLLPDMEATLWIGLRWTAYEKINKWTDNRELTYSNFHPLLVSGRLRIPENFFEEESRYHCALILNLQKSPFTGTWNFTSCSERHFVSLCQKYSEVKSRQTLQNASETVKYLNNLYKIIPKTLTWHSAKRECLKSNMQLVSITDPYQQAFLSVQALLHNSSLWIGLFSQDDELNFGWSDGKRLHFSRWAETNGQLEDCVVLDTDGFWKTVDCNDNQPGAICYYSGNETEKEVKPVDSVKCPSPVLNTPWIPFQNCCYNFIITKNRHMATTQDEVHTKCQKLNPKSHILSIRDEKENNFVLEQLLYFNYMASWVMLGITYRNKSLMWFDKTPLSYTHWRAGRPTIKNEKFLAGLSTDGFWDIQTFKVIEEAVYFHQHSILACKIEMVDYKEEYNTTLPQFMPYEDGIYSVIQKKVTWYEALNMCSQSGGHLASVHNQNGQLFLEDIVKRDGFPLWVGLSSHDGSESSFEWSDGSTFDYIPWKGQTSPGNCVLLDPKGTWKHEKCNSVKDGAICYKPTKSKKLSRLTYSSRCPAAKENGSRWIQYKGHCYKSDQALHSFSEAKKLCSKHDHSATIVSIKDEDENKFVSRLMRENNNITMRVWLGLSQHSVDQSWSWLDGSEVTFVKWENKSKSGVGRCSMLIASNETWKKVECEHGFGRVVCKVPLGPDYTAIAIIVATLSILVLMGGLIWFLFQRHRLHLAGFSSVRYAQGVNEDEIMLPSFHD
UniProt P22629: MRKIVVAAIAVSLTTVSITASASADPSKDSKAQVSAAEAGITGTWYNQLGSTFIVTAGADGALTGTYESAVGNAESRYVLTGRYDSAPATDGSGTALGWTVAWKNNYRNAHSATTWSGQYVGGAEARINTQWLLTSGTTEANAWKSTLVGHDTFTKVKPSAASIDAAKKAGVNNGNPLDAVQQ

[4] = biological target: T1, CR/FNII domain of canine DEC205, GST fusion protein (canine); test: ELISA on coated canine CR/FNII, bound hCG detected with hCG a/s and anti-rabbit IgG-HRP
[5] = biological target: human DEC205 (human) (UniProt O60449); test: flow cytometry on human monocyte-derived dendritic cells
[6] = biological target: human DEC205 (human) (UniProt O60449); test: flow cytometry on CHO/hDEC205 cells, hCG a/s and anti-rabbit IgG-FITC

Measured: binding

ScFv-CS-hCG complex of ScFv 12 (from UniProt P22629 37-163; P01215 25-116; P0DN86 21-165)
binds: [1] | [2] | [3] | [4]

ScFv-CS-hCG complex of ScFv 37 (from UniProt P22629 37-163; P01215 25-116; P0DN86 21-165)
binds: [1] | [2] | [3] | [4]

ScFv-CS-hCG complex of ScFv 39 (from UniProt P22629 37-163; P01215 25-116; P0DN86 21-165)
binds: [1] | [2] | [3] | [4]

ScFv-CS-hCG complex of ScFv 42 (from UniProt P22629 37-163; P01215 25-116; P0DN86 21-165)
binds: [1] | [2] | [3] | [4]

ScFv-CS-hCG complex of ScFv 83 (from UniProt P22629 37-163; P01215 25-116; P0DN86 21-165)
binds: all assays above

ScFv-CS-hCG complex of ScFv 92 (from UniProt P22629 37-163; P01215 25-116; P0DN86 21-165)
binds: [1] | [2] | [3] | [4]
